Test results from PubChem BioAssay AID445 (National Center for Advancing Translational Sciences (NCATS), 2006).
Some of the results follow. The main result of the screen is listed elsewhere. These columns were measured beside it and carry no call. Compounds called inactive in the main read-out are mostly missing here. Potencies come from curve fits of mixed quality, noted in brackets.

Assay: IkB Signaling
Details: ABC-DLBCL IkBa-CBG/CBR dual luciferase ratio (green luciferase fused to IkBa over red control in OCI-Ly3 lymphoma cells), 4 h; measured here: control luc red channel unless noted
How it was run: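 Curves were fitted separately to fusion (green), unfused (red) and ratio luminescence, then classed by r2, magnitude and activity. Cells: OCI-Ly3, 4 h compound plus doxycycline at 37C; 10 uM MG-132 defined full response.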

Row | Compound | AC50
1 | CCOc1ccc(NC(=O)CSc2nc3ccccc3c(=O)n2CCC(=O)NC2CCCCC2)cc1 | 5.01 µM [rising, partial curve]
2 | COc1cc(C(=O)NCCSc2c(C)[nH]c3ccccc23)cc(OC)c1OC | 10 µM [falling, partial curve]
3 | COc1ccc(-c2noc(C3CC(=O)N(c4ccc5c(c4)OCCO5)C3)n2)c(OC)c1 (centres undefined) | 12.6 µM [falling, partial curve]
4 | O=C1CC(N2CCN(c3nc4ccccc4s3)CC2)C(=O)N1Cc1cccs1 (centres undefined) | 7.94 µM [falling, partial curve]
5 | CCc1ccccc1NC(=O)[C@H](Cc1ccccc1)N1Cc2ccccc2C1=O | 20 µM [falling, partial curve]
6 | O=C(COc1ccc(Cl)cc1)Nc1nnc(-c2ccc3c(c2)CCCC3)o1 | 6.31 µM [rising, single point] [measured here: IkB-luc green channel]
7 | COc1ccc(NC(=O)N2CCc3c(sc4c3CCCC4)C2c2ccc(F)cc2)cc1 (centres undefined) | 3.98 µM [falling, full curve]
8 | CCn1c(=O)c2cc(C(=O)N(C)c3cc(C)ccc3C)sc2c2ccccc21 | 25.1 µM [falling, single point]
9 | CC(C)c1ccc(Nc2nc3ccc(C(=O)c4ccccc4)cc3n3cnnc23)cc1 | 0.000631 µM [rising, full curve]
10 | Cc1ccc(NC(=O)Nc2nnc(N3CCCCC3)s2)c(C)c1 | 15.8 µM [falling, single point]
11 | CCOC(=O)C1CCN(C(=O)COc2ccc(Br)cc2)CC1 | 0.631 µM [falling, full curve]
12 | CCc1ccc(CNC(=O)c2cc3c(=O)oc4ccc(C)cc4c3s2)cc1 | 31.6 µM [rising, partial curve]
13 | COc1ccc(NC(=O)c2ccc3snnc3c2)cc1OC | 0.0316 µM [rising, full curve]
14 | CCOc1ccc(-n2c(=O)c3c4c(sc3n(Cc3cccc(Cl)c3)c2=O)CCCC4)cc1 | 3.98 µM [falling, partial curve]
15 | O=C(NCC(c1ccc2c(c1)OCO2)N1CCOCC1)c1ccc(F)cc1 (centres undefined) | 5.01 µM [rising, full curve]
16 | CCCCN1CC(c2nc3ccccc3n2CCCCOc2c(C)cccc2C)CC1=O (centres undefined) | 0.1 µM [falling, full curve]
17 | CCOc1ccc(Sc2cc(C(=O)NCCc3ccc(OC)c(OC)c3)c3ccccc3n2)cc1 | 0.00631 µM [falling, full curve, poor fit]
18 | COc1ccc(C)cc1NC(=O)CN1CCN(c2ccc(F)cc2)CC1 | 20 µM [falling, partial curve]
19 | CCn1c(=NC(=O)CSC(C)=O)sc2cc(F)ccc21 | 12.6 µM [falling, partial curve]
20 | COc1ccc(-c2nn(-c3ccccc3)cc2C(=O)Nc2ccccc2OC)cc1 | 15.8 µM [falling, partial curve]
21 | O=C1c2[nH]nc(-c3ccccc3O)c2C(c2cccc(Cl)c2)N1CC1CCCO1 (centres undefined) | 20 µM [falling, partial curve]
22 | Cc1cccc(C(=O)Nc2ccccc2-c2nc(-c3ccccc3)no2)c1 | 2 µM [rising, full curve]
23 | O=c1c2oc3ccccc3c2n(Cc2ccccc2F)c(=O)n1Cc1ccco1 | 1 µM [rising, full curve, poor fit]
24 | Cc1c(CNCCCc2ccccc2)c(C(=O)O)c(C)n1Cc1ccc(Cl)cc1 | 15.8 µM [falling, partial curve]
25 | Cc1ccc(Cn2cc(CCC(=O)NC3CCCCC3)c3ccccc32)cc1 | 7.94 µM [falling, partial curve]
26 | Cc1cc(-n2c(C)cc(C(=O)CSc3ccc4c(c3)OCCO4)c2C)no1 | 25.1 µM [falling, partial curve]
27 | CCCCCSc1nnc2c(n1)OC(c1ccc(C)s1)N(C(C)=O)c1ccccc1-2 (centres undefined) | 31.6 µM [falling, partial curve]
28 | Cc1c(Cl)cccc1N1CC(c2nc3ccccc3n2Cc2ccccc2F)CC1=O (centres undefined) | 39.8 µM [falling, single point]
29 | Oc1ccccc1-c1nc(/C=C/c2ccc(F)cc2)no1 | 0.0398 µM [falling, full curve]

Look-ups from the entries so far.
Value for `Cc1c(CNCCCc2ccccc2)c(C(=O)O)c(C)n1Cc1ccc(Cl)cc1` under AC50: 15.8 µM [falling, partial curve]
Value for `CCCCN1CC(c2nc3ccccc3n2CCCCOc2c(C)cccc2C)CC1=O` (centres undefined) under AC50: 0.1 µM [falling, full curve]
